In US7572799B2, “Pyrazolo[4,3-d]pyrimidines as Phosphodiesterase Inhibitors” (Pfizer Inc, priority 2003, dated 2009):

Biological target: PDE-5 (UniProt O76074)
Assay: In vitro PDE inhibitory activity against PDE5 (batch method or scintillation proximity assay)
Assay type: biochemical, human
Conditions: representative compounds

IC50 | Structure (SMILES)
0.608 nM | CCOCCn1nc(C(=O)NS(C)(=O)=O)c2nc(N(C)C(C)C)nc(Nc3cc(C)ncn3)c21
0.414 nM | CCN(C)c1nc(Nc2cccc(C)c2)c2c(n1)c(C(=O)O)nn2CCOCC(F)(F)F
7.19 nM | CCOCCn1nc(C(=O)O)c2nc(N(C)C(C)C)nc(Nc3ccc(C)cn3)c21
8.97 nM | COCCn1nc(C(=O)O)c2nc(N(C)C)nc(Nc3cc(C)ccn3)c21

The structures given here were assigned with low confidence; some may be wrong.
